In US20040121965A1, “Method of treating resistant tumors” (Wyeth Holdings Corporation, priority 2002, published 2004):

Test system: KB-HTI-4.0
Test: Cell survival assay, KB-3-1 line made resistant to Example 129 (KB-HTI-4.0)
Type: cell-based
Conditions: Homo sapiens, KB 3-1, read-out: KB-HTI-4.0 IC50, nM
Source text: Cells lines with previously known mechanisms of resistance. […] Res. 8: 207-218,1996); KB-3-1 (parental derived from an epidermoid carcinoma), KB-8.5, KB-V1 (Akiyama S-I, Fojo A, Hanover J A, Pastan I, Gottesman M M. Isolation and genetic characterization of human KB cell lines resistant to multiple drugs. Somatic Cell Mol. Gen., 11: 117-126,1985; Shen D-W, Cardarelli C, Hwang J, Cornwell M, Richert N, Ishii S, Pastan I, Gottesman MM. […] J. Biol. Chem., 261: 7762-7770, 1986); and HL-60 (parental derived from human leukemia) and HL60/AR (McGrath T., Center M. S. Adriamycin resistance in HL60 cells in the absence of detectable P-glycoprotein. Biochem. Res. Commun., 145:1171-1176,1987); A549 and A549.EpoB40 (He L., Yang C.-P.H., Horwitz S. B. Mutations in p-tubulin map to domains involved in regulation of microtubule stability in epothilone-resistant cell lines. Molecular Cancer Therapeutics. 1: 3-10, 2001). HCT-15 human colon carcinoma and DLD-1 human colon carcinoma are obtained from American Tissue Culture Collection. The MX-1W carcinoma is a Wyeth variant orginally obtained as MX-1 breast carcinoma from the National Cancer Institute. Cell lines selected for resistance to Representative Example 129. […]
2.2. […] Absorbance is read on a Victor V multi-label plate reader (Perkin Elmer, Gaithersburg, Md.). […]

Work on `COc1cc2c(c(OC)c1OC)-c1ccc(OC)c(=O)cc1[C@@H](NC(C)=O)CC2` [colchicine, reference compound] yielded an IC50 of 22.35 ± 0.07 nM.
